Source: publication PMC8929146
These are yes or no findings as the source states them, for the method shown. In cells and extracts the contact can be indirect. Some results given as binding are weak or reduced against the parent protein; the word gives no strength.

Protein sequences, listed by entry. Tags and fused reporters are not part of them. Residues count along the entry.
UniProt Q03164: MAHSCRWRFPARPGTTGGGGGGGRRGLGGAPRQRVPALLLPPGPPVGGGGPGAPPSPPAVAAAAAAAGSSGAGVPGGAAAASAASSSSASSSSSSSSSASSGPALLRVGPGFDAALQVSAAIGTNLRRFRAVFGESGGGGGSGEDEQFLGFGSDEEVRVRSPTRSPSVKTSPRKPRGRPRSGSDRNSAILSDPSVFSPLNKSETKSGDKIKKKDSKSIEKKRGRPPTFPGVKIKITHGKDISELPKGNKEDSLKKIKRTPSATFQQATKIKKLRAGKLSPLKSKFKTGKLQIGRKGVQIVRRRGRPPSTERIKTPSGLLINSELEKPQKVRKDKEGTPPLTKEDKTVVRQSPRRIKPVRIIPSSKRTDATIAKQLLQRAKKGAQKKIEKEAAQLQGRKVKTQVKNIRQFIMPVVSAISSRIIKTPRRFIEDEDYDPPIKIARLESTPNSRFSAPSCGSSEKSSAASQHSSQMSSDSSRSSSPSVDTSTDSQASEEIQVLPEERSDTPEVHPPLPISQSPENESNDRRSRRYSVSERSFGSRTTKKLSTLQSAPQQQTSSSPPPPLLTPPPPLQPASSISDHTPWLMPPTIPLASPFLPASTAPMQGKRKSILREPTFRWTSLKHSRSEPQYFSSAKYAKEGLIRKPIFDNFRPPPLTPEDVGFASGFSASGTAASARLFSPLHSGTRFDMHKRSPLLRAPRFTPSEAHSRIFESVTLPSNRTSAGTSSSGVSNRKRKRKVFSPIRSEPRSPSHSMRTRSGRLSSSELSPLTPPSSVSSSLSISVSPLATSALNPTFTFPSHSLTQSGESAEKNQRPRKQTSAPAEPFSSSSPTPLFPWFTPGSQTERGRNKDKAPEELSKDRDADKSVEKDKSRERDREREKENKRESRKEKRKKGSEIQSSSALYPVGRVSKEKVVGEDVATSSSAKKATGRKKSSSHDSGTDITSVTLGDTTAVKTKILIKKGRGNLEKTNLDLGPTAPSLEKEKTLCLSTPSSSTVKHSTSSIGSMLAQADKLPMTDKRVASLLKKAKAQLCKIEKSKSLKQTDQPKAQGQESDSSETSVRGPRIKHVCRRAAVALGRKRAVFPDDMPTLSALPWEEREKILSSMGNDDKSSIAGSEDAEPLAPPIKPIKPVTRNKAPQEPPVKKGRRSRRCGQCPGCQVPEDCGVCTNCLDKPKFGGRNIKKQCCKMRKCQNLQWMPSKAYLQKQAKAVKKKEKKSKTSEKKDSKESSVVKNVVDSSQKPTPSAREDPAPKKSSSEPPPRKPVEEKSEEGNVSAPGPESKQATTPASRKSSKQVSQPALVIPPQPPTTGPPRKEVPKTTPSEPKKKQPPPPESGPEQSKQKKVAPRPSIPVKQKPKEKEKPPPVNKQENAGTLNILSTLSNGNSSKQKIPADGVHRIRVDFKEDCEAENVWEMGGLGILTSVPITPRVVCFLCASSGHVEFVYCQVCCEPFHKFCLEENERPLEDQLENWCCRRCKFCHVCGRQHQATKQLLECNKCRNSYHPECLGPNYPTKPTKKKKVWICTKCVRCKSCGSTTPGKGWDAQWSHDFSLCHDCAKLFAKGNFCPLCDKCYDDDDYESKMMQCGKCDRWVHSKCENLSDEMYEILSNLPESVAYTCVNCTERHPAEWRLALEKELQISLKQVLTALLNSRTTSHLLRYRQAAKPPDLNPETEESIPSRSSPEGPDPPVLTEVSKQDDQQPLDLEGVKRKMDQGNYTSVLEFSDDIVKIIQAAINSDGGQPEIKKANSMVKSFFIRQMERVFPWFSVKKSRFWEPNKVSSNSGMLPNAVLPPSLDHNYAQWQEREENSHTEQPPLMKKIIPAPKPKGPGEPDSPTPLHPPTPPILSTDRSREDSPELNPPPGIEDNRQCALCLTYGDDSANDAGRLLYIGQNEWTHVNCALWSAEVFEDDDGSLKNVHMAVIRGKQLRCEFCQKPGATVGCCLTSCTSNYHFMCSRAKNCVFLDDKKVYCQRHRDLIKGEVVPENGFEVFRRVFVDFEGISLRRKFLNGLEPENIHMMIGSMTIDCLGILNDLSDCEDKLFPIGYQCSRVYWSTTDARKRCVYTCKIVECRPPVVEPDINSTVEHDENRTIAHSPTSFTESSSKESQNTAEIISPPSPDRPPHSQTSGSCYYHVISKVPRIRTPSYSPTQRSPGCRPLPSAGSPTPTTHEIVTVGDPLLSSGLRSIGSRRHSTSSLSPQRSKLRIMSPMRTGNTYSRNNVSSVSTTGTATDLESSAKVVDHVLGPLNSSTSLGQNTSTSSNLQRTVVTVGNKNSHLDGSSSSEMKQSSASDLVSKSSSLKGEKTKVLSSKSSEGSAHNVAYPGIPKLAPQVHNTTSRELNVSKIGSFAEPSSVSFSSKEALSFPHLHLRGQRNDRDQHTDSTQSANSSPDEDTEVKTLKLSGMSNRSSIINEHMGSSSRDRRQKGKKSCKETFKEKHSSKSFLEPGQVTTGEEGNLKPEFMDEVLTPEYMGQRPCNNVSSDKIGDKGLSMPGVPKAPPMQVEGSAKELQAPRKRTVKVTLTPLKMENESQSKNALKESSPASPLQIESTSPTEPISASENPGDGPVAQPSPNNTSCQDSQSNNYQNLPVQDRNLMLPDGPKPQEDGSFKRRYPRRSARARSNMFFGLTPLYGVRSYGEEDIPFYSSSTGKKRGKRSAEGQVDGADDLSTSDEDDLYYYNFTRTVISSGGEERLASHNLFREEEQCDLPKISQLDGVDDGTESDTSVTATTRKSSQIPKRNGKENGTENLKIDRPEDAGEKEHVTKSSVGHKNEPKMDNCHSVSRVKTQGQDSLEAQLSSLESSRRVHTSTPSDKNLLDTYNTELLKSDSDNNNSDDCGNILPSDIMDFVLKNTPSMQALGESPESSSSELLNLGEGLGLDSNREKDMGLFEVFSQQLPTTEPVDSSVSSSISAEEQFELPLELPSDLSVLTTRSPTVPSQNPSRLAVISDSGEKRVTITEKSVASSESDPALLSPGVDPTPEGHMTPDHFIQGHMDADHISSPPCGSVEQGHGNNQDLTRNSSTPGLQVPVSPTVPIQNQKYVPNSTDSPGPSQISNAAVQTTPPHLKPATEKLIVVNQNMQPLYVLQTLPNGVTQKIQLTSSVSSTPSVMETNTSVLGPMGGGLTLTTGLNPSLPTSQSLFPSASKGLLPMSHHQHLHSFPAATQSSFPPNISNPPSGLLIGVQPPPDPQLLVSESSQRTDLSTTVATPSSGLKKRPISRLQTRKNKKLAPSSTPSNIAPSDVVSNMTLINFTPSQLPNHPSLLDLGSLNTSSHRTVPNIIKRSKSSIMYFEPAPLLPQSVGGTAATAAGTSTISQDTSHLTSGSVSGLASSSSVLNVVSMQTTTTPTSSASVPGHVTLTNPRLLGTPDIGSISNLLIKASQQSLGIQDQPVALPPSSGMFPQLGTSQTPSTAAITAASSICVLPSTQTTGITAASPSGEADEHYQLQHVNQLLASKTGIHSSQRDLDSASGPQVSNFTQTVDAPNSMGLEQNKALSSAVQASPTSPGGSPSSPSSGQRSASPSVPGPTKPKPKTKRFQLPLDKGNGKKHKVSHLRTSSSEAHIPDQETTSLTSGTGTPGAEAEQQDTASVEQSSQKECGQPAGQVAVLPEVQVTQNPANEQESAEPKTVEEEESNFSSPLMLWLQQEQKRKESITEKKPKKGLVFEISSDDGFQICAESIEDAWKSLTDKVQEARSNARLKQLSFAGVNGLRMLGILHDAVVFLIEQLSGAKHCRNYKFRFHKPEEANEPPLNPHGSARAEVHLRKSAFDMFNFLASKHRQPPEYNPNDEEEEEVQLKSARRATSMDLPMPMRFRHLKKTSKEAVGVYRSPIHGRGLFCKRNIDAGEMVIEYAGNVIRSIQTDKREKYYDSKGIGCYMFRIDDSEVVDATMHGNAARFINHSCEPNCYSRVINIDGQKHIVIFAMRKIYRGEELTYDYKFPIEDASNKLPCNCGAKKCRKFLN
UniProt P51532: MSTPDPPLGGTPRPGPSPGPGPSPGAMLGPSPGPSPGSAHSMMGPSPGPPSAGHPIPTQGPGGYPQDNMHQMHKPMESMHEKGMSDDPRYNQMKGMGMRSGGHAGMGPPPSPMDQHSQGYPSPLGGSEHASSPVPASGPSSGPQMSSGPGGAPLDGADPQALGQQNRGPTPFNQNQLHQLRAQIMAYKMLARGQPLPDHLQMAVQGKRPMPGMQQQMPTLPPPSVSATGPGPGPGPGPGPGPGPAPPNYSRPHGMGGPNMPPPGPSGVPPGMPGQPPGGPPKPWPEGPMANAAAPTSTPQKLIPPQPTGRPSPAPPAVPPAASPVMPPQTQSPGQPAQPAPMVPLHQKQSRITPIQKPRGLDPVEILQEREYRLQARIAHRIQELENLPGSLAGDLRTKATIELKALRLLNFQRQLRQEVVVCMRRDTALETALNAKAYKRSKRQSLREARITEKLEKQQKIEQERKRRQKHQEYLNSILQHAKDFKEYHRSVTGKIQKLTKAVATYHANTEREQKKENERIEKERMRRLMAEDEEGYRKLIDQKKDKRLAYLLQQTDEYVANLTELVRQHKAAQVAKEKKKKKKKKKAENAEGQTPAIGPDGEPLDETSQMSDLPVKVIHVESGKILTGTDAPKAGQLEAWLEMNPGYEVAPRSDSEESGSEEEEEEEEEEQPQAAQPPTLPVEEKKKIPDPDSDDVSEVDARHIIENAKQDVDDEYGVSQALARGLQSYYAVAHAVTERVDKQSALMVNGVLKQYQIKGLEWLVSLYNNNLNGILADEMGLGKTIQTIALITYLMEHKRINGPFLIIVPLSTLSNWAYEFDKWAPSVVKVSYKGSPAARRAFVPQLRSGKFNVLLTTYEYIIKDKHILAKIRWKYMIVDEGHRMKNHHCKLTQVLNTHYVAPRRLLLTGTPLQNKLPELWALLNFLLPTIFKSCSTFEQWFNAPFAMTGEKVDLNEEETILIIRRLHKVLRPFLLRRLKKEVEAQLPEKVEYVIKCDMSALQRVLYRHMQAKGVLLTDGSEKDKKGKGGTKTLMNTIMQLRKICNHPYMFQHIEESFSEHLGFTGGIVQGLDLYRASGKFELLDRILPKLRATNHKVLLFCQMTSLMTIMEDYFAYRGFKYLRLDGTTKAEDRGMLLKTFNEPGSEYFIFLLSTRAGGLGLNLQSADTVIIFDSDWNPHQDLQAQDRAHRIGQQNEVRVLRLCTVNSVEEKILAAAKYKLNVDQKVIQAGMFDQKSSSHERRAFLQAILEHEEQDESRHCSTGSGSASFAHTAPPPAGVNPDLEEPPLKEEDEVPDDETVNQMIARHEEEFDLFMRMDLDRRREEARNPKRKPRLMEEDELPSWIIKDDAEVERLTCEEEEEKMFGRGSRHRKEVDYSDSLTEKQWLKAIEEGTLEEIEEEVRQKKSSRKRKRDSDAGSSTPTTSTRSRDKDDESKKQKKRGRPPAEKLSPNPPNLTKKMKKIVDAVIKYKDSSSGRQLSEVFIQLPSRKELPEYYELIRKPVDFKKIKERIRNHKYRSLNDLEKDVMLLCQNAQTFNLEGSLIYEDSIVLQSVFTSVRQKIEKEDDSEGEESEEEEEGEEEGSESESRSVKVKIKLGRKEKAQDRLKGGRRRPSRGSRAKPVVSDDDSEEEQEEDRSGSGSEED
UniProt P35869, residues 11-848: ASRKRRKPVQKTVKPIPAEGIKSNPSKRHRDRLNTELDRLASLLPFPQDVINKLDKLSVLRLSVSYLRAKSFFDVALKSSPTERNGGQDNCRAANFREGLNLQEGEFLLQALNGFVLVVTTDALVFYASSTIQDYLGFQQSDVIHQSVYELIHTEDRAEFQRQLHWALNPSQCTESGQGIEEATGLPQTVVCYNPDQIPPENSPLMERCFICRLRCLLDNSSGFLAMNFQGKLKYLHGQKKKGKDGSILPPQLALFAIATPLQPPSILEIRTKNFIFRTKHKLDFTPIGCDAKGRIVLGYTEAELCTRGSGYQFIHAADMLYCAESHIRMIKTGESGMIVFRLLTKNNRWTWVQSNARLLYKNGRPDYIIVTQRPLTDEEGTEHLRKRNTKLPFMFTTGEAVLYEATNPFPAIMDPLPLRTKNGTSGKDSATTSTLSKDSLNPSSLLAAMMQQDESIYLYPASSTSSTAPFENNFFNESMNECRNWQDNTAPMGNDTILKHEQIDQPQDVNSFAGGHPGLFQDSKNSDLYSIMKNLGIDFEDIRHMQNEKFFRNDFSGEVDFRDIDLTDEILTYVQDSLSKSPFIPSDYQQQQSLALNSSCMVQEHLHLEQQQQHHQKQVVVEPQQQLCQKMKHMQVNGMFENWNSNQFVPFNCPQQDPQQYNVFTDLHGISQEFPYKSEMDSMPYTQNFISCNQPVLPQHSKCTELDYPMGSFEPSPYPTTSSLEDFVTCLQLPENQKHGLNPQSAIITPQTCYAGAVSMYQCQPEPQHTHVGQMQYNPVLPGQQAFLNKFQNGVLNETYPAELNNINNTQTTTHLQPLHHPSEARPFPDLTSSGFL

How the values were obtained:
[1] = biological target: MLL1 (human (endogenous in ARPE-19)) (UniProt Q03164); experiment: co-IP; endogenous proteins in total extracts of ARPE-19 cells treated with 10 nM TCDD or vehicle, RIPA buffer; immunoprecipitation with anti-AHR, anti-BRG1 or anti-MLL1 antibody or normal IgG, then immunoblotting
[2] = biological target: BRG1 (human (endogenous in ARPE-19)) (UniProt P51532); experiment: as above

## Aryl hydrocarbon receptor (from UniProt P35869 11-848)
[1]
  binding: binds
[2]
  binding: binds
